In US20170152285A1, “EXTRACTING METHOD OF KUGUACIN, PHARMACEUTICAL COMPOSITION COMPRISING THE KUGUACIN AND USE THEREOF” (priority 2015, published 2017):
Some results were stated once for a whole list of compounds, not compound by compound. At least one structure is not confirmed: it was looked up by name or label, or the drawing left a doubt.

System: THP-1 cell
Test: MTT assay for testing cell viability
Assay type: cell-based, Human
Details: 20 μg/mL, 24 hours

Which viability of cells does the source give for C=C(C)/C=C/C[C@@H](C)[C@H]1CC[C@@]2(C)[C@@H]3C=C[C@@]45O[C@@H](O)[C@]3(CC[C@]12C)[C@@H]4CC[C@H](O)C5(C)C [fraction 532, 5β,19-epoxycucurbita-6,23(E),25(26)-triene-3β,19(R)-diol] here?
The viability of cells was “greater than 75%”.

C[C@H](C/C=C/C(C)(C)O)[C@H]1CC[C@@]2(C)[C@@H]3[C@@H](O)C=C4[C@@H](CC[C@H](O)C4(C)C)[C@]3(C=O)CC[C@]12C [fraction 5212, 3,7,25-trihydroxycucurbita-5,23-dien-19-al] was tested. Which viability of cells did it give?
Its viability of cells is “greater than 75%”.

Which viability of cells does the source give for CC(CC=CC(C)(C)O)C1CCC2(C)C3C=CC45OC(O)C3(CCC12C)C4CCC(O)C5(C)C (stereo not drawn) [fraction 5211, 5,19-epoxycucurbita-6,23-diene-3,19,25-triol] here?
The viability of cells was “greater than 75%”.
